These are literature values, as cited in article PMC4015959, “The Structural and Functional Basis of Catalysis Mediated by NAD(P)H:acceptor Oxidoreductase (FerB) of Paracoccus denitrificans” (PLoS ONE, 2014).

The data set deals with apoflavodoxin from Anabaena PCC 7119. The following applies: cited from earlier work.

As for `Cc1cc2nc3c(=O)[nH]c(=O)nc-3n(C[C@H](O)[C@H](O)[C@H](O)COP(=O)(O)O)c2cc1C` [FMN, flavin mononucleotide], the “Gibbs binding energy component, isoalloxazine part” value was -5.02 kcal/mol; the “Gibbs binding energy component, phosphate part” value is -6.93 kcal/mol; the “Gibbs binding energy component, ribityl part” value is -1.2 kcal/mol; the “overall Gibbs binding energy” value is -13.1 kcal/mol.
